Values from PubChem BioAssay AID1259254 (NCATS, 2017)
Screen: 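Genome-wide screen for genes that prevent DNA re-replication in cancer cells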 (primary screen). Cells: human HCT116 colorectal cancer cells. Knock-down reagent: single siRNA against human genes. Timing: 3 days. Measured: 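Imaged Hoechst DNA stain sorts each cell into a cycle phase by DNA amount; per plate, G2 fraction set to 0% for non-targeting and 100% for GMNN siRNA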. Direction: G2 robust z-score: higher = more G2 cells, more excess DNA replication. Active means: 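An siRNA counts as active if its G2 robust z-score lies at least 5 MADs above the screen median; here such calls match roughly 38% of GMNN control or more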.
Shown is an unselected part of about 59,000 deposited reagents. About 1,550 of all reagents (2.6%) were called active. 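G2 share is only a proxy for re-replication; each gene was hit by three separate siRNAs, and active genes were retested.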 The numbers tell different reagents against one gene apart. Further read-outs or replicates are left out here. The record does not give: the amount of reagent.

Gene,siRNA no.,G2 robust z-score,activity call
SPOCK3,1,-0.207,inactive
SPOCK3,2,-0.891,inactive
SPOCK3,3,-0.723,inactive
ZNF169 (zinc finger protein 169),1,-0.436,inactive
ZNF169 (zinc finger protein 169),2,0.236,inactive
ZNF169 (zinc finger protein 169),3,-0.313,inactive
KRTAP5-8 (keratin associated protein 5-8),1,-0.554,inactive
KRTAP5-8 (keratin associated protein 5-8),2,0.216,inactive
KRTAP5-8 (keratin associated protein 5-8),3,0.239,inactive
TMEM121 (transmembrane protein 121),1,-0.0126,inactive
TMEM121 (transmembrane protein 121),2,-0.863,inactive
TMEM121 (transmembrane protein 121),3,-0.283,inactive
RMI1 (RecQ mediated genome instability 1),1,1.92,inactive
RMI1 (RecQ mediated genome instability 1),2,-0.302,inactive
RMI1 (RecQ mediated genome instability 1),3,-1.05,inactive
HMGA1 (high mobility group AT-hook 1),1,1.47,inactive
HMGA1 (high mobility group AT-hook 1),2,2.39,inactive
HMGA1 (high mobility group AT-hook 1),3,1.02,inactive
ODF2L (outer dense fiber of sperm tails 2 like),1,-0.848,inactive
ODF2L (outer dense fiber of sperm tails 2 like),2,-0.00996,inactive
ODF2L (outer dense fiber of sperm tails 2 like),3,0.16,inactive
CLEC10A (C-type lectin domain containing 10A),1,1.75,inactive
CLEC10A (C-type lectin domain containing 10A),2,0.38,inactive
CLEC10A (C-type lectin domain containing 10A),3,0.0875,inactive
RPUSD3 (RNA pseudouridine synthase D3),1,-0.593,inactive
RPUSD3 (RNA pseudouridine synthase D3),2,0.934,inactive
RPUSD3 (RNA pseudouridine synthase D3),3,-0.0127,inactive
C4orf51 (chromosome 4 open reading frame 51),1,-0.946,inactive
C4orf51 (chromosome 4 open reading frame 51),2,2.44,inactive
C4orf51 (chromosome 4 open reading frame 51),3,-0.747,inactive

Targets above whose gene name starts with K or k:
Gene,siRNA no.,G2 robust z-score,activity call
KRTAP5-8 (keratin associated protein 5-8),1,-0.554,inactive
KRTAP5-8 (keratin associated protein 5-8),2,0.216,inactive
KRTAP5-8 (keratin associated protein 5-8),3,0.239,inactive

More records follow:
Gene,siRNA no.,G2 robust z-score,activity call
EPC2 (enhancer of polycomb 2),1,-1.19,inactive
EPC2 (enhancer of polycomb 2),2,-0.131,inactive
EPC2 (enhancer of polycomb 2),3,2.03,inactive
PNMA2 (PNMA family member 2),1,0.237,inactive
PNMA2 (PNMA family member 2),2,-0.0777,inactive
PNMA2 (PNMA family member 2),3,-0.0711,inactive
DDX54 (DEAD-box helicase 54),1,0.878,inactive
DDX54 (DEAD-box helicase 54),2,0.432,inactive
DDX54 (DEAD-box helicase 54),3,-0.278,inactive
SLTM (SAFB like transcription modulator),1,-0.566,inactive
SLTM (SAFB like transcription modulator),2,1.6,inactive
SLTM (SAFB like transcription modulator),3,-0.0369,inactive
SLC38A11,1,-0.691,inactive
SLC38A11,2,-0.868,inactive
SLC38A11,3,-0.474,inactive
DOC2B (double C2 domain beta),1,-0.661,inactive
DOC2B (double C2 domain beta),2,2.58,inactive
DOC2B (double C2 domain beta),3,-0.511,inactive
HTR1D (5-hydroxytryptamine receptor 1D),1,5.39,active
HTR1D (5-hydroxytryptamine receptor 1D),2,-1.4,inactive
HTR1D (5-hydroxytryptamine receptor 1D),3,-0.0167,inactive
ERLIN2 (ER lipid raft associated 2),1,0.286,inactive
ERLIN2 (ER lipid raft associated 2),2,2.67,inactive
ERLIN2 (ER lipid raft associated 2),3,1.65,inactive
DNAJC12 (DnaJ heat shock protein family (Hsp40) member C12),1,-0.761,inactive
DNAJC12 (DnaJ heat shock protein family (Hsp40) member C12),2,1.64,inactive
DNAJC12 (DnaJ heat shock protein family (Hsp40) member C12),3,-0.352,inactive
CCIN (calicin),1,-0.448,inactive
CCIN (calicin),2,0.702,inactive
CCIN (calicin),3,-0.204,inactive
SPOP (speckle type BTB/POZ protein),1,-0.377,inactive
SPOP (speckle type BTB/POZ protein),2,2.06,inactive
SPOP (speckle type BTB/POZ protein),3,-0.206,inactive
ZNF639 (zinc finger protein 639),1,1.64,inactive
ZNF639 (zinc finger protein 639),2,-0.151,inactive
ZNF639 (zinc finger protein 639),3,-0.306,inactive
RASSF6 (Ras association domain family member 6),1,1.53,inactive
RASSF6 (Ras association domain family member 6),2,-0.168,inactive
RASSF6 (Ras association domain family member 6),3,0.218,inactive
